Results as given in patent US11834672B2, “Method for producing hypophysis precursor tissue” (RIKEN, priority 2011, dated 2023).
Entries after “also recorded” stand apart in the source; their conditions may differ. At least one structure is not confirmed: it was looked up by name or label, or the drawing left a doubt.

Columns and labels:
[1] = tested on: ES cell-derived pituitary precursor tissue; experiment: Differentiation of ES cell-derived pituitary precursor tissue into GH-, PRL-, LH-, FSH-, TSH-positive cells; format: cell-based, mouse; conditions: gfCDM with 50 ng/ml estradiol and 1 nM insulin for 10 days from day 20
Protocol: Mouse ES cells were differentiated into pituitary precursor tissues by an SAG treatment (400 nM for 7 days and 100 nM for 3 days, total 10 days) using the method of Example 2. Furthermore, the aggregates were continuously floating-cultured under 40% O2 and 5% CO2. The medium used was gfCDM comprising corticosteroid (200 ng/ml hydrocortisone) and 1 nM insulin, gfCDM comprising estrogen (50 ng/ml estradiol) and 1 nM insulin, or culture supernatant (conditioned medium) of mouse feeder cell, PA6 cell, in gfCDM.
The expression of growth hormone (GH), prolactin (PRL), luteinizing hormone (LH), follicle-stimulating hormone (FSH), and thyroid-stimulating hormone (TSH) was confirmed by cytochemical staining of frozen section by the fluorescence antibody method.

[2] = tested on: ES cell-derived ACTH-producing cells; experiment: In vitro ACTH secretion from ES cell-derived ACTH-producing cells by CRH, ELISA of culture supernatant; format: cell-based, mouse; conditions: pre-treatment with estradiol (E2)
Protocol: Mouse ES cells were differentiated into ACTH-producing cells by a SAG treatment and a DAPT treatment (total 22 days) using the method of Example 3. The aggregates were treated with CRH (corticotropin releasing factor) and ACTH secretion was quantified. To be specific, eight aggregates were placed in 500 μl of HBSS solution and, after pre-incubation at 37° C. for 10 min, CRH was added at a final concentration of 10-10000 ng/ml, and the aggregates were incubated for 10 min. Then, the culture supernatant was recovered and measured by ELISA method (FIG. 4a).

C[C@]12CC[C@@H]3c4ccc(O)cc4CC[C@H]3[C@@H]1CC[C@@H]2O [estradiol]
Prolactin-positive cells in the aggregate [1]: many Prolactin-positive cells | effect of pre-treatment on ACTH secretion [2]: did not affect; also recorded: did not influence ACTH secretion
